Experimental data from patent US20040242871A1, “Novel arylheteroalkylamine derivatives” (priority 2001, published 2004).
Structures can show the parent of a compound that is named as a salt. Some results were stated once for a whole list of compounds, not compound by compound.

What was measured:
Recombinant human iNOS = biological target: T1, Recombinant human iNOS (Homo sapiens, UniProt P35228); assay: Screen 2: recombinant human NO synthase inhibition, L-[3H]citrulline formation from L-[3H]arginine; type: biochemical; conditions: recombinant human iNOS expressed in E. coli, 60 min pre-incubation with NADPH, 3 μM [3H]arginine; read-out: IC50 against the iNOS enzyme
T1 construct: made in house; host or cells: E. coli (lysates in Hepes buffer with co-factors, lysozyme, CHAPS)

[1] = biological target: T2, human form of induced nitric oxide synthase in DLD-1 cells (Homo sapiens, UniProt P35228); assay: Screen 3: nitrite accumulation (Griess) in cytokine-induced DLD-1 cells; type: cell-based; conditions: DLD-1 cells induced with gamma-IFN, TNF-alpha, IL-6, IL-1-beta; 5 hours with compound; read-out: IC50 (inhibition of nitrite accumulation)
T2 construct: Nitric oxide synthase was induced in cells by addition of medium containing human recombinant gamma-IFN; endogenous in cells; host or cells: DLD-1 human colorectal carcinoma cells (ECACC 90102540), induced with gamma-IFN, TNF-alpha, IL-6 and IL-1-beta

| SMILES | IC50 (Recombinant human iNOS) [µM] | IC50 [1] [µM] |
| --- | --- | --- |
| COc1cc(S[C@@H](C[C@@H](N)CO)c2ccccc2)c(C#N)cn1.O=C(O)/C=C/C(=O)O [Example 12, 4-[[(1S,3R)-3-Amino-4-hydroxy-1-phenylbutyl]thio]-6-methoxy-3-pyridinecarbonitrile, (E)-butenedioate] | < 10 | < 100 |
| COc1cc(S[C@H](C[C@H](N)CO)c2sccc2F)c(C#N)cn1.O=C(O)/C=C/C(=O)O [Example 60, 4-[[(1R,3S)-3-Amino-1-(3-fluoro-2-thienyl)-4-hydroxybutyl]thio]-6-methoxy-3-pyridinecarbonitrile (E)-butenedioate salt] | < 10 | < 100 |
| COc1cc(S[C@H](C[C@@H](N)CO)c2ccccc2)c(C#N)cn1.O=C(O)/C=C/C(=O)O [Example 11, 4-[[(1R,3R)-3-Amino-4-hydroxy-1-phenylbutyl]thio]-6-methoxy-3-pyridinecarbonitrile (E)-butenedioate] | < 10 | < 100 |
| COc1cc(S[C@H](C[C@H](N)CO)c2ccccc2)c(Br)cn1 [Example 27, (β^1S,β^1R)-β-Amino-δ-[(5-bromo-2-methoxy-4-pyridinyl)thio]-benzenebutanol (E)-2-butenedioate] | < 10 | < 100 |
| Nc1cc(S[C@H](C[C@H](N)CO)c2cccc(F)c2)c([N+](=O)[O-])cc1Cl [Example 39, 2(2S)-Amino-4(4R)-(3-fluorophenyl)-4-[(5-amino-4-chloro-2-nitrophenyl)thio]butan-1-ol] | < 10 | < 100 |
| Cc1cnc(C#N)c(S[C@H](C[C@H](N)CO)c2ccccc2)c1 [Example 34, 3-[[(1R,3S)-3-Amino-4-hydroxy-1-phenylbutyl]thio]-5-methyl-2-pyridinecarbonitrile] | < 10 | < 100 |
| COC[C@@H](N)C[C@@H](Sc1nc(C)ccc1C#N)c1ccccc1 [Example 46, 2-[[(1R,3S)-3-Amino-4-methoxy-1-phenylbutyl]thio]-6-methyl-3-pyridinecarbonitrile ethanedioate] | < 10 | < 100 |
| CCN[C@H](CO)C[C@@H](Oc1cc(Cl)c(F)cc1C#N)c1nccs1.O=C(O)C(=O)O [Example 44, 4-Chloro-2-[[(1R,3S)-3-(ethylamino)-4-hydroxy-1-(2-thiazolyl)butyl]oxy]-5-fluoro-benzonitrile ethanedioate salt] | < 10 | < 100 |
| CCOc1cc(S[C@H](C[C@H](N)CO)c2ccccc2)c(C#N)cn1 [Example 29, 4-[[(1R,3S)-3-Amino-4-hydroxy-1-phenylbutyl]thio]-6-ethoxy-3-pyridinecarbonitrile. (E)-butenedioate] | < 10 | < 100 |
| N#Cc1cccnc1S[C@H](C[C@H](N)CO)c1ccccc1.O=C(O)/C=C/C(=O)O [Example 22, 2-[[(1R,3S)-3-Amino-4-hydroxy-1-phenylbutyl]thio]-3-pyridinecarbonitrile (E)-butenedioate] | < 10 | < 100 |
| CCc1ccc(C#N)c(S[C@H](C[C@H](N)CO)c2ccccc2)n1 [Example 17, 2-[[(1R,3S)-3-Amino-4-hydroxy-1-phenylbutyl]thio]-6-ethyl-3-pyridinecarbonitrile ethanedioate] | < 10 | < 100 |
| N#Cc1cc(F)c(Cl)cc1O[C@H](C[C@H](N)CO)c1cccs1 [Example 53, 2-[[3-(3S)-Amino-4-hydroxy-1-(1R)-(2-thienyl)butyl]oxy]-4-chloro-5-fluorobenzonitrile ethanedioate] | < 10 | < 100 |
| Cc1ccc(CO)c(S[C@H](C[C@H](N)CO)c2ccccc2)n1 [Example 19, 2-[[(1R,3S)-3-Amino-4-hydroxy-1-phenylbutyl]thio]-6-methyl]-3-pyridinemethanol ethanedioate] | < 10 | < 100 |
| Cc1ccc(C#N)c(S[C@H](C[C@@H](N)CO)c2ccccc2)n1 [Example 15, 2-[[(1R,3R)-3-Amino-4-hydroxy-1-phenylbutyl]thio]-6-methyl-3-pyridinecarbonitrile Hydrochloride] | < 10 | < 100 |
| N#Cc1cc(F)c(Cl)cc1O[C@H](C[C@H](N)CO)c1ccsc1.O=C(O)C(=O)O [Example 54, 2-[[3-(3S)-Amino-4-hydroxy-1(R)-(3-thienyl)butyl]oxy]-4-chloro-5-fluorobenzonitrile ethanedioate] | < 10 | < 100 |
| Cc1cc(S[C@H](C[C@H](N)CO)c2ccccc2)c(C#N)[nH]c1=O [Example 31, 3-[[(1R,3S)-3-Amino-4-hydroxy-1-phenylbutyl]thio]-1,6-dihydro-5-methyl-6-oxo-2-pyridinecarbonitrile] | < 10 | < 100 |
| COc1cc(S[C@H](C[C@H](N)CO)c2ccccc2F)c(C#N)cn1.O=C(O)C(=O)O [Example 35, 4-[[(1R,3S)-3-Amino-1-(2-fluorophenyl)-4-hydroxybutyl]thio]-6-methoxy-3-pyridinecarbonitrile ethanedioate] | < 10 | < 100 |
| N#Cc1cc(F)ccc1O[C@H](C[C@H](N)CO)c1cncs1.O=C(O)/C=C/C(=O)O [Example 45, 2-[[(1R,3S)-3-Amino-4-hydroxy-1-(5-thiazolyl)butyl]oxy]-5-fluoro-benzonitrile (2E)-2-butenedioate] | < 10 | < 100 |
| Cl.Cl.N#Cc1ccc(Br)cc1S[C@H](C[C@H](N)CO)c1cccnc1 [Example 58, 2-[[(1R,3S)-3-Amino-4-hydroxy-1-(3-pyridyl)butyl]thio]-4-bromobenzonitrile dihydrochloride] | < 10 | < 100 |
| COc1cc(S[C@H](C[C@H](N)CO)c2ccccc2)c(Cl)cn1 [Example 28, (β^1S,β^1R) β-Amino-δ-[(5-chloro-2-methoxy-4-pyridinyl)thio]-benzenebutanol (E)-2-butenedioate] | < 10 | < 100 |
| N#Cc1ncc(C(F)(F)F)cc1S[C@H](C[C@H](N)CO)c1ccccc1.O=C(O)C(=O)O [Example 30, 3-[[(1R,3S)-3-Amino-4-hydroxy-1-phenylbutyl]thio]-5-(trifluoromethyl)-2-pyridinecarbonitrile ethanedioate] | < 10 | < 100 |
| CNc1cc(S[C@H](C[C@H](N)CO)c2ccccc2)c(C#N)cn1.Cl.Cl [Example 26, 4-[[(1R,3S)-3-Amino-4-hydroxy-1-phenylbutyl]thio]-6-(methylamino)-3-pyridinecarbonitrile dihydrochloride] | < 10 | < 100 |
| N#Cc1ccc(C(F)(F)F)nc1OC(C[C@H](N)CO)c1ccno1.O=C(O)/C=C/C(=O)O (stereo partly drawn) [Example 52, 2-[[(3S)-3-Amino-4-hydroxy-1-(5-isoxazolyl)butyl]oxy]-6-(trifluoromethyl)-3-pyridinecarbonitrile, (E)-butenedioate] | < 10 | < 100 |
| N#Cc1cc(Cl)cnc1S[C@H](C[C@H](N)CO)c1ccccc1 [Example 63, 2-[[(1R,3S)-3-Amino-4-hydroxy-1-phenylbutyl]thio]-5-chloro-3-pyridinecarbonitrile-(E)-butenedioate salt] | < 10 | < 100 |
| CCC[C@@H](C[C@H](N)CO)Oc1cc(Cl)c(F)cc1C#N.O=C(O)C(=O)O [Example 48, 2-[[(1S,3S)-3-Amino-4-hydroxy-1-propylbutyl]oxy]-4-chloro-5-fluorobenzonitrile ethanedioate] | < 10 | < 100 |
